# Measured values as given in the supplement of paper PMC8728848.
# Some of the results follow.
# B1: Flo10 (Saccharomyces cerevisiae), P36170 (protein)
# chain: MPVAARYIFLTGLFLLSVANVALGTTEACLPAGEKKNGMTINFYQYSLKDSSTYSNPSYMAYGYADAEKLGSVSGQTKLSIDYSIPCNGASDTCACSDDDATEYSASQVVPVKRGVKLCSDNTTLSSKTEKRENDDCDQGAAYWSSDLFGFYTTPTNVTVEMTGYFLPPKTGTYTFGFATVDDSAILSVGGNVAFECCKQEQPPITSTDFTINGIKPWNADAPTDIKGSTYMYAGYYYPIKIVYSNAVSWGTLPVSVVLPDGTEVNDDFEGYVFSFDDNATQAHCSVPNPAEHARTCVSSATSSWSSSEVCTECTETESTSYVTPYVTSSSWSSSEVCTECTETESTSTSTPYVTSSSSSSSEVCTECTETESTSYVTPYVSSSTAAANYTSSFSSSSEVCTECTETESTSTSTPYVTSSSWSSSEVCTECTETESTSYVTPYVSSSTAAANYTSSFSSSSEVCTECTETESTSTSTPYVTSSSSSSSEVCTECTETESTSYVTPYVSSSTAAANYTSSFSSSSEVCTECTETESTSTSTPYVTSSSWSSSEVCTECTETESTSYVTPYVSSSTAAANYTSSFSSSSEVCTECTETESTSTSTPYATSSTGTATSFTASTSNTMTSLVQTDTTVSFSLSSTVSEHTNAPTSSVESNASTFISSNKGSVKSYVTSSIHSITPMYPSNQTVTSSSVVSTPITSESSESSASVTILPSTITSEFKPSTMKTKVVSISSSPTNLITSYDTTSKDSTVGSSTSSVSLISSISLPSSYSASSEQIFHSSIVSSNGQALTSFSSTKVSSSESSESHRTSPTTSSESGIKSSGVEIESTSTSSFSFHETSTASTSVQISSQFVTPSSPISTVAPRSTGLNSQTESTNSSKETMSSENSASVMPSSSATSPKTGKVTSDETSSGFSRDRTTVYRMTSETPSTNEQTTLITVSSCESNSCSNTVSSAVVSTATTTINGITTEYTTWCPLSATELTTVSKLESEEKTTLITVTSCESGVCSETASPAIVSTATATVNDVVTVYSTWSPQATNKLAVSSDIENSASKASFVSEAAETKSISRNNNFVPTSGTTSIETHTTTTSNASENSDNVSASEAVSSKSVTNPVLISVSQQPRGTPASSMIGSSTASLEMSSYLGIANHLLTNSGISIFIASLLLAIV
# Assays:
# Assay in all cases: glycan array binding signal (z-score within array); higher = stronger binding
# Conditions in all cases: glycan notation: IUPAC condensed, linker removed
# [1] = target: Neu5Ac(a2-3)Gal(b1-4)GlcNAc(b1-3)Gal(b1-4)GlcNAc(b1-3)Gal(b1-4)GlcNAc
# Outline: (§1)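 The binding signal is a Z-score computed within each array and averaged over linkers. Arrays of the same protein sequence at different concentrations or buffers were also averaged together. Data originate from 3228 arrays in the Consortium for Functional Glycomics database, kept only where the protein sequence was available.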
# [2] = target: Neu5Ac(a2-3)Gal(b1-4)GlcNAc(b1-3)Gal(b1-4)[Fuc(a1-3)]GlcNAc
# Outline: as §1
# [3] = target: Neu5Ac(a2-3)Gal(b1-4)GlcNAc(b1-3)GalNAc
# Outline: as §1
# [4] = target: Neu5Ac(a2-3)Gal(b1-4)GlcNAc(b1-6)[Gal(b1-3)]GalNAc
# Outline: as §1
# [5] = target: Neu5Ac(a2-3)Gal(b1-4)GlcNAc(b1-6)[Neu5Ac(a2-3)Gal(b1-3)]GalNAc
# Outline: as §1
# [6] = target: Neu5Ac(a2-3)Gal(b1-4)GlcNAc6S
# Outline: as §1
# [7] = target: Neu5Ac(a2-3)Gal(b1-4)[Fuc(a1-3)]GlcNAc
# Outline: as §1
# [8] = target: Neu5Ac(a2-3)Gal(b1-4)[Fuc(a1-3)]GlcNAc(b1-3)Gal
# Outline: as §1
# [9] = target: Neu5Ac(a2-3)Gal(b1-4)[Fuc(a1-3)]GlcNAc(b1-3)Gal(b1-4)GlcNAc
# Outline: as §1
# [10] = target: Neu5Ac(a2-3)Gal(b1-4)[Fuc(a1-3)]GlcNAc(b1-3)Gal(b1-4)[Fuc(a1-3)]GlcNAc(b1-3)Gal(b1-4)[Fuc(a1-3)]GlcNAc
# Outline: as §1
# [11] = target: Neu5Ac(a2-3)Gal(b1-4)[Fuc(a1-3)]GlcNAc(b1-3)GalNAc
# Outline: as §1
# [12] = target: Neu5Ac(a2-3)Gal(b1-4)[Fuc(a1-3)]GlcNAc(b1-6)[Gal(b1-3)]GalNAc
# Outline: as §1
# [13] = target: Neu5Ac(a2-3)Gal(b1-4)[Fuc(a1-3)]GlcNAc(b1-6)[Neu5Ac(a2-3)Gal(b1-3)]GalNAc
# Outline: as §1
# [14] = target: Neu5Ac(a2-3)Gal(b1-4)[Fuc(a1-3)]GlcNAc6S
# Outline: as §1
# [15] = target: Neu5Ac(a2-3)Gal6S(b1-4)GlcNAc
# Outline: as §1
# [16] = target: Neu5Ac(a2-3)Gal6S(b1-4)[Fuc(a1-3)]GlcNAc
# Outline: as §1
# Neu5Ac(a2-3)GalNAc = target: Neu5Ac(a2-3)GalNAc
# Outline: as §1
# [17] = target: Neu5Ac(a2-3)GalNAc(b1-4)GlcNAc
# Outline: as §1
# [18] = target: Neu5Ac(a2-3)[GalNAc(b1-4)]Gal(b1-4)Glc
# Outline: as §1
# [19] = target: Neu5Ac(a2-3)[GalNAc(b1-4)]Gal(b1-4)GlcNAc
# Outline: as §1
# [20] = target: Neu5Ac(a2-3)[GalNAc(b1-4)]Gal(b1-4)GlcNAc(b1-3)GalNAc
# Outline: as §1
# [21] = target: Neu5Ac(a2-3)[Neu5Ac(a2-6)]GalNAc
# Outline: as §1
# Neu5Ac(a2-6)Gal = target: Neu5Ac(a2-6)Gal
# Outline: as §1
# Neu5Ac(a2-6)Gal(b1-4)Glc = target: Neu5Ac(a2-6)Gal(b1-4)Glc
# Outline: as §1
# [22] = target: Neu5Ac(a2-6)Gal(b1-4)GlcNAc
# Outline: as §1
# [23] = target: Neu5Ac(a2-6)Gal(b1-4)GlcNAc(b1-2)Man(a1-3)Man(b1-4)GlcNAc(b1-4)GlcNAc
# Outline: as §1
# [24] = target: Neu5Ac(a2-6)Gal(b1-4)GlcNAc(b1-2)Man(a1-3)[Gal(b1-4)GlcNAc(b1-2)Man(a1-6)]Man(b1-4)GlcNAc(b1-4)GlcNAc
# Outline: as §1
# [25] = target: Neu5Ac(a2-6)Gal(b1-4)GlcNAc(b1-2)Man(a1-3)[GlcNAc(b1-2)Man(a1-6)]Man(b1-4)GlcNAc(b1-4)GlcNAc
# Outline: as §1
# [26] = target: Neu5Ac(a2-6)Gal(b1-4)GlcNAc(b1-2)Man(a1-3)[GlcNAc(b1-2)Man(b1-4)GlcNAc(b1-2)Man(a1-6)]Man(b1-4)GlcNAc(b1-4)GlcNAc
# Outline: as §1
# [27] = target: Neu5Ac(a2-6)Gal(b1-4)GlcNAc(b1-2)Man(a1-3)[Man(a1-6)]Man(b1-4)GlcNAc(b1-4)GlcNAc
# Outline: as §1
# [28] = target: Neu5Ac(a2-6)Gal(b1-4)GlcNAc(b1-2)Man(a1-3)[Neu5Ac(a2-6)Gal(b1-4)GlcNAc(b1-2)Man(a1-6)]Man(b1-4)GlcNAc(b1-4)GlcNAc
# Outline: as §1
# [29] = target: Neu5Ac(a2-6)Gal(b1-4)GlcNAc(b1-2)Man(a1-6)Man(b1-4)GlcNAc(b1-4)GlcNAc
# Outline: as §1
# [30] = target: Neu5Ac(a2-6)Gal(b1-4)GlcNAc(b1-2)Man(a1-6)[Gal(b1-4)GlcNAc(b1-2)Man(a1-3)]Man(b1-4)GlcNAc(b1-4)GlcNAc
# Outline: as §1
# [31] = target: Neu5Ac(a2-6)Gal(b1-4)GlcNAc(b1-2)Man(a1-6)[GlcNAc(b1-2)Man(a1-3)]Man(b1-4)GlcNAc(b1-4)GlcNAc
# Outline: as §1
# [32] = target: Neu5Ac(a2-6)Gal(b1-4)GlcNAc(b1-2)Man(a1-6)[Man(a1-3)]Man(b1-4)GlcNAc(b1-4)GlcNAc
# Outline: as §1
# [33] = target: Neu5Ac(a2-6)Gal(b1-4)GlcNAc(b1-3)Gal(b1-3)GlcNAc
# Outline: as §1
# [34] = target: Neu5Ac(a2-6)Gal(b1-4)GlcNAc(b1-3)Gal(b1-4)GlcNAc
# Outline: as §1
# [35] = target: Neu5Ac(a2-6)Gal(b1-4)GlcNAc(b1-3)Gal(b1-4)GlcNAc(b1-3)Gal(b1-4)GlcNAc
# Outline: as §1
# [36] = target: Neu5Ac(a2-6)Gal(b1-4)GlcNAc(b1-3)Gal(b1-4)[Fuc(a1-3)]GlcNAc(b1-3)Gal(b1-4)[Fuc(a1-3)]GlcNAc
# Outline: as §1
# [37] = target: Neu5Ac(a2-6)Gal(b1-4)GlcNAc(b1-3)GalNAc
# Outline: as §1
# [38] = target: Neu5Ac(a2-6)Gal(b1-4)GlcNAc6S
# Outline: as §1
# Neu5Ac(a2-6)GalNAc = target: Neu5Ac(a2-6)GalNAc
# Outline: as §1
# [39] = target: Neu5Ac(a2-6)GalNAc(b1-4)GlcNAc
# Outline: as §1
# [40] = target: Neu5Ac(a2-6)GlcNAc(b1-4)GlcNAc
# Outline: as §1
# [41] = target: Neu5Ac(a2-6)GlcNAc(b1-4)GlcNAc(b1-4)GlcNAc
# Outline: as §1
binder,measurement,setting,value
B1,glycan array binding signal (z-score),[1],-0.121
same,glycan array binding signal (z-score),[2],-0.587
same,glycan array binding signal (z-score),[3],-0.225
same,glycan array binding signal (z-score),[4],1.09
same,glycan array binding signal (z-score),[5],-0.788
same,glycan array binding signal (z-score),[6],0.388
same,glycan array binding signal (z-score),[7],-0.689
same,glycan array binding signal (z-score),[8],-0.499
same,glycan array binding signal (z-score),[9],-0.763
same,glycan array binding signal (z-score),[10],-0.842
same,glycan array binding signal (z-score),[11],-0.323
same,glycan array binding signal (z-score),[12],-0.629
same,glycan array binding signal (z-score),[13],0.12
same,glycan array binding signal (z-score),[14],-0.767
same,glycan array binding signal (z-score),[15],1.05
same,glycan array binding signal (z-score),[16],-0.163
same,glycan array binding signal (z-score),Neu5Ac(a2-3)GalNAc,-0.639
same,glycan array binding signal (z-score),[17],2.18
same,glycan array binding signal (z-score),[18],-0.309
same,glycan array binding signal (z-score),[19],0.542
same,glycan array binding signal (z-score),[20],-0.509
same,glycan array binding signal (z-score),[21],0.68
same,glycan array binding signal (z-score),Neu5Ac(a2-6)Gal,5.85
same,glycan array binding signal (z-score),Neu5Ac(a2-6)Gal(b1-4)Glc,2.1
same,glycan array binding signal (z-score),[22],-0.746
same,glycan array binding signal (z-score),[23],3.04
same,glycan array binding signal (z-score),[24],1.84
same,glycan array binding signal (z-score),[25],1.36
same,glycan array binding signal (z-score),[26],-0.665
same,glycan array binding signal (z-score),[27],1.91
same,glycan array binding signal (z-score),[28],-0.615
same,glycan array binding signal (z-score),[29],3.12
same,glycan array binding signal (z-score),[30],0.223
same,glycan array binding signal (z-score),[31],-0.398
same,glycan array binding signal (z-score),[32],1.55
same,glycan array binding signal (z-score),[33],-0.243
same,glycan array binding signal (z-score),[34],-0.726
same,glycan array binding signal (z-score),[35],-0.363
same,glycan array binding signal (z-score),[36],-0.603
same,glycan array binding signal (z-score),[37],-0.493
same,glycan array binding signal (z-score),[38],-0.867
same,glycan array binding signal (z-score),Neu5Ac(a2-6)GalNAc,-0.743
same,glycan array binding signal (z-score),[39],-0.635
same,glycan array binding signal (z-score),[40],-0.177
same,glycan array binding signal (z-score),[41],-0.236

# Part of the list above, with bars between the fields:
binder | measurement | setting | value
B1 | glycan array binding signal (z-score) | [2] | -0.587
same | glycan array binding signal (z-score) | [8] | -0.499
same | glycan array binding signal (z-score) | [11] | -0.323
same | glycan array binding signal (z-score) | [14] | -0.767
same | glycan array binding signal (z-score) | [15] | 1.05
same | glycan array binding signal (z-score) | [19] | 0.542
same | glycan array binding signal (z-score) | [21] | 0.68
same | glycan array binding signal (z-score) | [24] | 1.84
same | glycan array binding signal (z-score) | [25] | 1.36
same | glycan array binding signal (z-score) | [36] | -0.603
